The values below come from publication PMC10171863.

Sequences of proteins named here, by UniProt entry; tags and fusion partners are left off.
UniProt Q8VCC8: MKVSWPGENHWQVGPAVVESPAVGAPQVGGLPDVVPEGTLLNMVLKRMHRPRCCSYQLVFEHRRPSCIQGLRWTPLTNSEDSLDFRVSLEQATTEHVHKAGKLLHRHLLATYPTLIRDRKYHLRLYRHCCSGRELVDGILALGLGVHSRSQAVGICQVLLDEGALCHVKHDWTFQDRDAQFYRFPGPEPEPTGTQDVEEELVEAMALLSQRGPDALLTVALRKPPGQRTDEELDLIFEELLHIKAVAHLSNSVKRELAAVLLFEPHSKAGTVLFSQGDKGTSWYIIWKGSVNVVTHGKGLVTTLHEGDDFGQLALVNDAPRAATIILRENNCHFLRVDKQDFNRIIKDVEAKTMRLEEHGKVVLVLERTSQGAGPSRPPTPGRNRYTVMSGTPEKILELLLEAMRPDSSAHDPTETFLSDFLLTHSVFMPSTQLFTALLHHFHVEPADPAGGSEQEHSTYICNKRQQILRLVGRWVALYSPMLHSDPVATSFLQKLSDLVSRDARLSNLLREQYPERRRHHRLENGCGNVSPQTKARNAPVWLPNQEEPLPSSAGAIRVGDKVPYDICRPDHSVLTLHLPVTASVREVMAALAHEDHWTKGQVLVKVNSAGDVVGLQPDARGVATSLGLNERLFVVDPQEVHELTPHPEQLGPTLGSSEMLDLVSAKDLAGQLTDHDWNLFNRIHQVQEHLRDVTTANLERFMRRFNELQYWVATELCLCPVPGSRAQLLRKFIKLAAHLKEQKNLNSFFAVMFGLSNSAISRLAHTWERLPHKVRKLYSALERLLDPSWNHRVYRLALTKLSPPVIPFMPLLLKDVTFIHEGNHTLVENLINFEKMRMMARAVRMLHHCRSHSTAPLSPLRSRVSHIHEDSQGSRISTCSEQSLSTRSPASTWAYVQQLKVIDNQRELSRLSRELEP
UniProt Q9EQZ6: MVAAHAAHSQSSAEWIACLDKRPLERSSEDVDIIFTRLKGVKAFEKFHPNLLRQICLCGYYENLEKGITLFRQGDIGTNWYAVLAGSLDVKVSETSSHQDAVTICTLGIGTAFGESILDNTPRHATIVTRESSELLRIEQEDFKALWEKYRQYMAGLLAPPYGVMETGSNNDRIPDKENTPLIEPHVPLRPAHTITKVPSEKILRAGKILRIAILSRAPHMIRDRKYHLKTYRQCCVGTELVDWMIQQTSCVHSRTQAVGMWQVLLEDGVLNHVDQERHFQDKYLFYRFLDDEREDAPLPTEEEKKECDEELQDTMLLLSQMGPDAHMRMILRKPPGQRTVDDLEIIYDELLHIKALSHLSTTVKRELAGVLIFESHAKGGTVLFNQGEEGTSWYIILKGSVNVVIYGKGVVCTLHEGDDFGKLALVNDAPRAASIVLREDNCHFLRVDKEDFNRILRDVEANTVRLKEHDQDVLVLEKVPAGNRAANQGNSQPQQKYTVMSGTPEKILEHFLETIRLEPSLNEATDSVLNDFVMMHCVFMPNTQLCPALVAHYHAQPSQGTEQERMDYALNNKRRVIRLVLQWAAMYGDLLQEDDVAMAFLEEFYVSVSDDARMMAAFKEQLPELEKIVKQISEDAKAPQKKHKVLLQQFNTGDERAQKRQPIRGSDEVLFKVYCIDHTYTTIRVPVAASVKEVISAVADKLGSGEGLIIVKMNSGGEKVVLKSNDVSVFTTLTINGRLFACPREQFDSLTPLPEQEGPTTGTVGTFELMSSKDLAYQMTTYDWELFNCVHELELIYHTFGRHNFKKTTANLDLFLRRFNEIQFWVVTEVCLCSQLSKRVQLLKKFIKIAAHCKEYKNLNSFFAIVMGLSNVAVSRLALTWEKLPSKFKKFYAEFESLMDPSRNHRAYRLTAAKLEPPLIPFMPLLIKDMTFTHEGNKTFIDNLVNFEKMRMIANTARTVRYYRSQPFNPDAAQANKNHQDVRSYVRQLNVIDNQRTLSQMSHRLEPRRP
UniProt P09216: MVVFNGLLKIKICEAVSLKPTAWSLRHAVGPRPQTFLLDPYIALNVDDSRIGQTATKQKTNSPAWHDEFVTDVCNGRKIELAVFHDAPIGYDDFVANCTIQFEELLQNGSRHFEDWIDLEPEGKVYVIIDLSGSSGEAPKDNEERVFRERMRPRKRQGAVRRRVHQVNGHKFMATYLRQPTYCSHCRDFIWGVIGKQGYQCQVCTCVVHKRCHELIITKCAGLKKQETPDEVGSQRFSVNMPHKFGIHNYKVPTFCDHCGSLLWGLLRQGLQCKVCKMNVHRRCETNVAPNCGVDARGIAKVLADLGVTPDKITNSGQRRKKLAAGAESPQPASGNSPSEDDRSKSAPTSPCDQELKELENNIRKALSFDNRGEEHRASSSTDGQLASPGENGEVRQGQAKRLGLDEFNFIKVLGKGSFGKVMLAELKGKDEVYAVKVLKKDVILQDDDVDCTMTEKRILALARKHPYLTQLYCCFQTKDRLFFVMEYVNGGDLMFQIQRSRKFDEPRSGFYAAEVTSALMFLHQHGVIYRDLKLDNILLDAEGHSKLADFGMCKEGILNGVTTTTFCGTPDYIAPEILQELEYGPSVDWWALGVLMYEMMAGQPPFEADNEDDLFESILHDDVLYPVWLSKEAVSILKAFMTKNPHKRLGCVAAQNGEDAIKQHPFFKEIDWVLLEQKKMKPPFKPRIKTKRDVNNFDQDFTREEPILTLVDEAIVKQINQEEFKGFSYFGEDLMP
UniProt Q4KUS2: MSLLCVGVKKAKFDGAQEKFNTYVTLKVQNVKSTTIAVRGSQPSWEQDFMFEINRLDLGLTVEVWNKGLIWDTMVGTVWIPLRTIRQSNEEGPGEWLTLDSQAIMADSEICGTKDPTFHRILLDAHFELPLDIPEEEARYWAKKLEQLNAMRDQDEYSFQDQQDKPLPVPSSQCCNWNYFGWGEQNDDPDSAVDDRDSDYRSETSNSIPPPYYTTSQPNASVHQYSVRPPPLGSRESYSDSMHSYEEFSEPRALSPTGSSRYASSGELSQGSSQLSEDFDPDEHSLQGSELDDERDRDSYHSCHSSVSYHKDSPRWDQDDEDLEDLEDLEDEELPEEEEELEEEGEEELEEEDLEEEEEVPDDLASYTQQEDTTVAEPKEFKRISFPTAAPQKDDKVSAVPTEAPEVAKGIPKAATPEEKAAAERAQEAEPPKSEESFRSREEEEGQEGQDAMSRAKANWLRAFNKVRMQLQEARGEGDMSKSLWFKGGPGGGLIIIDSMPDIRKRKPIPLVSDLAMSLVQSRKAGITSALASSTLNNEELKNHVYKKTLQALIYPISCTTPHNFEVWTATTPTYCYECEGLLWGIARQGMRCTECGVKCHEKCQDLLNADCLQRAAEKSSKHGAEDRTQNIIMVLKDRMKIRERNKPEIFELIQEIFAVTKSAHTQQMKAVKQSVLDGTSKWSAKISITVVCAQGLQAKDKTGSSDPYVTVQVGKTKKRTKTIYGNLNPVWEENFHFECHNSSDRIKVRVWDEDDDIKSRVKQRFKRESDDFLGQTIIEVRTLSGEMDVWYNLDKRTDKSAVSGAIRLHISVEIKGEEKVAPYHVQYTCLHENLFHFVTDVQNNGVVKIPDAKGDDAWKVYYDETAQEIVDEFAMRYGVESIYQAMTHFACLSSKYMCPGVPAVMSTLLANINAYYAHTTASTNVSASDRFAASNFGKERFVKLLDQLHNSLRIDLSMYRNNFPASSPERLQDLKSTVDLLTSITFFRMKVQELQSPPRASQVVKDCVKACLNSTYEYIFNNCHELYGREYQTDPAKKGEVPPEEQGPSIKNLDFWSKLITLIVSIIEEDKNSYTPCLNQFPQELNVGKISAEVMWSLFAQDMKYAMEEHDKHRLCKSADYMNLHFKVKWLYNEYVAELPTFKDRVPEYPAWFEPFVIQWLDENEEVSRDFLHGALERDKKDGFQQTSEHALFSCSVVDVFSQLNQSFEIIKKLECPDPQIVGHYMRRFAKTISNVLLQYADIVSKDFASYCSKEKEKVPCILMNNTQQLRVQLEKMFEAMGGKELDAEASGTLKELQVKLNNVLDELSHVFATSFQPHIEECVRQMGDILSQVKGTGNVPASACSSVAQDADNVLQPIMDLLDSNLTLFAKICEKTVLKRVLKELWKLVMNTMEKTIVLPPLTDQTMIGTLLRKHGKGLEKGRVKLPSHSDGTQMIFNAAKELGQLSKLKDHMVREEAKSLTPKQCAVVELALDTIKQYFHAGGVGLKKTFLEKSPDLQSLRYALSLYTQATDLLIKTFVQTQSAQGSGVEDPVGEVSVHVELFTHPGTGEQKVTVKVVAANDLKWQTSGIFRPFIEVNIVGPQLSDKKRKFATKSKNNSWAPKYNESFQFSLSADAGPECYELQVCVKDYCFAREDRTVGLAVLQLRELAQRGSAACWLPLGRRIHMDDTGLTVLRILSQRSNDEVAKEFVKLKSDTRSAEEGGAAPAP
UniProt P16054: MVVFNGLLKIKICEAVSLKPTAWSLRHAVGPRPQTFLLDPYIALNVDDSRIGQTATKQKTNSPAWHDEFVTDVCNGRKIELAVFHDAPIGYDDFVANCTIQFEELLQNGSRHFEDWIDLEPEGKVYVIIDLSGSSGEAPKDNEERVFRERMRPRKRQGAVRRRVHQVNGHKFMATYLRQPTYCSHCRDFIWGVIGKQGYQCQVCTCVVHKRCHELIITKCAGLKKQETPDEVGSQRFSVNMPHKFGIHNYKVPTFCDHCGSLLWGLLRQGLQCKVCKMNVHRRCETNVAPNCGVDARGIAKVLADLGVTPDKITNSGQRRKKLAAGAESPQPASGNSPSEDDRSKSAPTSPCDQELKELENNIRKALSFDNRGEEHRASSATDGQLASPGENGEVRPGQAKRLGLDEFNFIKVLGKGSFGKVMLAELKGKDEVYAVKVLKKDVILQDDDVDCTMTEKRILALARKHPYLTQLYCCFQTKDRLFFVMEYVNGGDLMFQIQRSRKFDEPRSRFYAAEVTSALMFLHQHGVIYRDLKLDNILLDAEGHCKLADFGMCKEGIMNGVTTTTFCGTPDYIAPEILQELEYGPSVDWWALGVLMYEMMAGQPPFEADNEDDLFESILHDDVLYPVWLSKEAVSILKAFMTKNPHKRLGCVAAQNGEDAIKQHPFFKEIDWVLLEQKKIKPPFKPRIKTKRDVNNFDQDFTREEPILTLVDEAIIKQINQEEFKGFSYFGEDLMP

Experiment [1] addresses T1, RIM1 (mouse (endogenous in cerebellar synaptosomes)) (UniProt Q99NE5).
T1 sequence: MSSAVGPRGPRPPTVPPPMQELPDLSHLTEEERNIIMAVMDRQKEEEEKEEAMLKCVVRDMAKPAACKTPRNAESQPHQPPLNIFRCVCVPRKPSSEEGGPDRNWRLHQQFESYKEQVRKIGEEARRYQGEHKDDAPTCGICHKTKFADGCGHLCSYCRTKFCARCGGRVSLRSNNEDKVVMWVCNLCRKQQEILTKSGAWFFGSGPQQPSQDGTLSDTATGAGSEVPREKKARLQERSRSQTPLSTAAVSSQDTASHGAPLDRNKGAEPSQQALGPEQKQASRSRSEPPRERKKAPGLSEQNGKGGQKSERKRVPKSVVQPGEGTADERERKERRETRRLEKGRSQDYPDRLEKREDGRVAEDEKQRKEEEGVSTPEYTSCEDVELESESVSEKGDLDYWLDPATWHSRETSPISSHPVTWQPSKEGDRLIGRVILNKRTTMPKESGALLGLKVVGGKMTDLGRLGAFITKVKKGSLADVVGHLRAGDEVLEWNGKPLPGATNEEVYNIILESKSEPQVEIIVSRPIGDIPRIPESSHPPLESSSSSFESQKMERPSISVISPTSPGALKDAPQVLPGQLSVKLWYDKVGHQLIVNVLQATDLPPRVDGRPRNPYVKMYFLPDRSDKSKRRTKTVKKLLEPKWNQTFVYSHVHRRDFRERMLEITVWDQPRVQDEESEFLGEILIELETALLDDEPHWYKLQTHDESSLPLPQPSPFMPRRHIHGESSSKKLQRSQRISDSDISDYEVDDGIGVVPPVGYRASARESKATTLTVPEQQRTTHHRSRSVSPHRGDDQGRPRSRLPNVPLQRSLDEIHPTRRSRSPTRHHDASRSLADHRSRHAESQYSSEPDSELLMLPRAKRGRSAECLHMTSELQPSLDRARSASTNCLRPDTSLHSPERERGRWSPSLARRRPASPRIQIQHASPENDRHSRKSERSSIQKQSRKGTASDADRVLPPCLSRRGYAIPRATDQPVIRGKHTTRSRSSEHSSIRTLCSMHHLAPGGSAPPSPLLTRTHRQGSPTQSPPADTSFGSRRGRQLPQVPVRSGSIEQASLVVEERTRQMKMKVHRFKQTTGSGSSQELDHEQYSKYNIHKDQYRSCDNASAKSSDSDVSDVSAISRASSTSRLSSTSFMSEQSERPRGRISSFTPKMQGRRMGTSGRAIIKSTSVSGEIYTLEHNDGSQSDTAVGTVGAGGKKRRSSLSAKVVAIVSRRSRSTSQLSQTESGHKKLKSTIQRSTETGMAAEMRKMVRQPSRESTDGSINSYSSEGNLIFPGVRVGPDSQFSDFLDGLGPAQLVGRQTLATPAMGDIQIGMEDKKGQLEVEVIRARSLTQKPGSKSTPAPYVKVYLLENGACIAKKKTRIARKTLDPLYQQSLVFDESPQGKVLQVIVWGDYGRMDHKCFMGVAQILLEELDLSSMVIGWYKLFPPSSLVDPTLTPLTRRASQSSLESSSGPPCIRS
The experiment can be described thus: co-IP; lysate of mouse cerebellar synaptosomes (P21) incubated with anti-RIM1 antibody precoupled to GammaBind Plus Sepharose, western blot; rabbit IgG as negative control; also done with synaptosomes of Rapgef3/4-dKO and Prkce-cKO mice and after 8-pCPT (20 μM, 30 min), 8-pCPT + εV1-2 (5 µM, 30 min) or FR236924 (200 nM, 30 min). In general terms: A western blot detects proteins with antibodies after separation by electrophoresis.

The target of the next experiment is HA-RIM1α (rat) (UniProt Q9JIR4). Put plainly: co-IP; lysate of HEK cells co-transfected with HA-RIM1α and His-PKCε, anti-HA antibody precoupled to GammaBind Plus Sepharose, western blot.

Results are given in words; binding and its absence hold for the method and conditions named. Binding seen in cells or lysates may run through a third protein. Some results given as binding are weak or reduced against the parent protein; the word gives no strength.

For the substance EPAC1 (from UniProt Q8VCC8 1-918), in experiment [1], the binding entry was “binds”. The same measure, in the same setting: then EPAC2 (from UniProt Q9EQZ6 1-1011), with “binds”. As to “His-PKCε (from UniProt P09216 1-737) (enzyme)”, the binding result in the experiment with HA-RIM1α (rat) is listed as “binds”. With Munc13-1 (from UniProt Q4KUS2 1-1712), in experiment [1], the binding entry is “binds”. In the case of “PKCε (from UniProt P16054 1-737) (enzyme)”, the binding entry in experiment [1] is given as “binds”.
